The assay has as its target T1, IL-10 receptor (UniProt Q13651).
T1 sequence (looked up): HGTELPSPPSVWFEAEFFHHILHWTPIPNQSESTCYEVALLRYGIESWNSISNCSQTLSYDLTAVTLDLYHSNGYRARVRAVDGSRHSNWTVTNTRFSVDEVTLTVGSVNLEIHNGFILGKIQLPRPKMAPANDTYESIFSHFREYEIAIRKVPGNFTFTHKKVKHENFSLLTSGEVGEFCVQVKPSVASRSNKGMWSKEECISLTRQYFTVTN
Briefly: SPR competition, IL-10 pre-incubated with IL-10 receptor abolishes its binding to the captured CA645/IL-10 fusion.

By UniProt entry, the sequences of proteins in these tests, tags left out. Residues count along the entry.
UniProt P22301, residues 19-178: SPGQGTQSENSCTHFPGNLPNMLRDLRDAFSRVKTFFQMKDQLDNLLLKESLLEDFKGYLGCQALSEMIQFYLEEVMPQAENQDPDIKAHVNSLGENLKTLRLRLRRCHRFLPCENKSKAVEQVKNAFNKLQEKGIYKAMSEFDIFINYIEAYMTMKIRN

In patent publication US20220073581A1 one finds binding data, which are given here for 1 substance.

These are yes or no findings as the source states them, for the method shown. Some results given as binding are weak or reduced against the parent protein; the word gives no strength.

Consider “IL-10, soluble competing ligand (from UniProt P22301 19-178)”, for which the binding result is reported as “binds”.
